Where “and” joins values, the source holds several entries; their conditions need not be identical. Equal entries are not always repeated. About 6,100 (1.1%) of roughly 580,000 compounds were called active. The inconclusive results got no clear call from the source; some entries with a clear call stand among them for comparison. The call rests on the fitted dose curve; in most records, active means well fitted inhibition curve with a large enough effect; inconclusive means small, poorly fitted or top-dose-only effect, or another doubt; inactive means no such curve, though single readings can be large or run the other way. A potency beside an inconclusive call is a rough fit, not a confirmed value.
What follows are compounds tested against Polyunsaturated fatty acid lipoxygenase ALOX12 (Homo sapiens) (UniProt P18054) (assay: Primary qHTS assay for inhibitors of human arachidonate 12S-lipoxygenase (ALOX12): Round 2). Conditions: purified 12hLO, xylenol orange hydroperoxide absorbance; series mostly up to 108 µM.
Method in brief: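 Purified human 12hLO at 150 nM in 25 mM Hepes, 0.01% Triton X-100, pH 7.0, preincubated 15 min at room temperature with compound. Reaction started with 40 uM arachidonic acid, 30 min at room temperature. Hydroperoxide measured by Fe-xylenol orange, 573/405 nm absorbance ratio.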
Potency means the concentration at half of the fitted maximal effect.

The chains behind the UniProt entries cited, without tags or fusion partners.
UniProt P18054, whole entry, looked up: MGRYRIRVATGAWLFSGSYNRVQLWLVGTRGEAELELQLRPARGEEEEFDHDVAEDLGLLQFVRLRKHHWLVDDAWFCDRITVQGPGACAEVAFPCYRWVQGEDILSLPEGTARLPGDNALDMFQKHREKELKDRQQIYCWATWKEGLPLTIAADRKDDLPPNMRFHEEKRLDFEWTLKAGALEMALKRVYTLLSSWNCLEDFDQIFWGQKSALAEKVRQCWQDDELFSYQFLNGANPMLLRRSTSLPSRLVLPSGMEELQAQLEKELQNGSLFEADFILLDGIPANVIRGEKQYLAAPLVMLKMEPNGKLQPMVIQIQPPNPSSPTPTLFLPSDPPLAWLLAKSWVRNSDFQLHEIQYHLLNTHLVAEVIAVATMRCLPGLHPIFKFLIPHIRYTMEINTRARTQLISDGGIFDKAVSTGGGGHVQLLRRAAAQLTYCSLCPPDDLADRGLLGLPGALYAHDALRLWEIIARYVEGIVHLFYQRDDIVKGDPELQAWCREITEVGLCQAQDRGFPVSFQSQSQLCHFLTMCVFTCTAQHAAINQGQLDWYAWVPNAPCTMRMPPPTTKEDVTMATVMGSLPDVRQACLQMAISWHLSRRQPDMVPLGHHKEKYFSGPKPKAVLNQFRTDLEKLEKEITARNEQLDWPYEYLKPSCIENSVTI

Row | SMILES | Potency
1 | COc1ccc(NC(=O)c2cc(-c3ccc(OC)c(OC)c3)on2)cc1OC | inactive
2 | NCCCCCCCCCCNS(=O)(=O)c1cccc2c(Cl)cccc12 | inconclusive: 35.5 µM [inhibitor, partial curve, poor fit]
3 | Cc1ccc(CNc2nc(-c3ccco3)nn2C(=O)CC(C)C)cc1 | inconclusive: 50.1 µM [inhibitor, single point]
4 | CC1CCCN(S(=O)(=O)c2ccc(-c3nc(C#N)c(NCc4ccco4)o3)cc2)C1 (centres undefined) | inactive
5 | C[C@@]12C(=O)N(Cc3ccco3)CC(=O)N1[C@H]1c3ccccc3OC[C@@H]1[C@@H]2c1ccccc1 | inconclusive: 89.1 µM [inhibitor, single point]
6 | O=C(NCc1ccccc1)C1CCN(S(=O)(=O)c2cc([N+](=O)[O-])ccc2Cl)CC1 | inconclusive: 70.8 µM [inhibitor, partial curve, poor fit]
7 | O=C(Oc1ccc2c(-c3cc4cc(Cl)ccc4oc3=O)cc(=O)oc2c1)N1CCOCC1 | inconclusive: 70.8 µM [inhibitor, single point]
8 | Cc1cc(N2C(=O)C3C4CC(c5ccccc5)C(C4)C3C2=O)no1 (centres undefined) | inactive
9 | O=c1oc2ccc(Cl)cc2cc1-c1csc(Nc2ccccc2)n1 | active: 20 µM
10 | COc1ccc(-c2noc(CN3CCC(C(=O)Nc4ccc(-c5ccno5)cc4)CC3)n2)cc1OC | inactive
11 | Cc1cc(NC(=O)CC(C)C)c(=O)n(Cc2cccc(F)c2)c1 | inconclusive: 70.8 µM [inhibitor, partial curve, poor fit]
12 | CCn1nnc2cc(C(=O)Nc3nc(-c4ccc(C)c(C)c4)cs3)ccc21 | inconclusive: 79.4 µM [inhibitor, partial curve, poor fit]
13 | O/N=C/c1cccc[n+]1CCCCCC[n+]1ccccc1/C=N/O | inconclusive: 12.6 µM [inhibitor, full curve, poor fit]
14 | COC(=O)c1sc(NC(=O)c2cc(-c3ccccc3)nc3ccccc23)c(C#N)c1C | inactive
15 | O=c1[nH]c(/C=C\c2cccc(Cl)c2)nc(O)c1[N+](=O)[O-] | inconclusive: 50.1 µM [inhibitor, partial curve, poor fit]
16 | COCCN(C(=O)c1cc(-c2ccco2)nc2ccccc12)c1c(N)n(CC(C)C)c(=O)[nH]c1=O | inconclusive: 50.1 µM [inhibitor, partial curve, poor fit]
17 | O=C1C2C3C=CC(C4CC34)C2C(=O)N1CCCCN1CCN(c2ccc(F)cc2)CC1 (centres undefined) | inconclusive: 35.5 µM [inhibitor, partial curve, poor fit]
18 | Cc1ccc(CNC(=O)N2CCC(Oc3ncccc3C(=O)N3CCCCC3)C2)cc1 (centres undefined) | inactive
19 | COc1ccccc1N1CCN(C(=O)N2CCOCC2)CC1 | inconclusive: 3.55 µM [inhibitor, full curve, poor fit]
20 | CC(C1CC2CCC1C2)n1c(-c2ccco2)n[nH]c1=S (centres undefined) | inconclusive: 44.7 µM [inhibitor, partial curve, poor fit]
21 | Cc1ccc(S(=O)(=O)Nc2ncnc3sccc23)cc1C | inconclusive: 4.47 µM [inhibitor, full curve, poor fit]
22 | O=CC1=C(N2CCOCC2)/C(=C/c2ccc(Cl)cc2)CC1 | inconclusive: 44.7 µM [inhibitor, partial curve, poor fit]

Sorted by heavy-atom count (falling): some entries from above
Row | SMILES | Potency
18 | Cc1ccc(CNC(=O)N2CCC(Oc3ncccc3C(=O)N3CCCCC3)C2)cc1 (centres undefined) | inactive
3 | Cc1ccc(CNc2nc(-c3ccco3)nn2C(=O)CC(C)C)cc1 | inconclusive: 50.1 µM [inhibitor, single point]
19 | COc1ccccc1N1CCN(C(=O)N2CCOCC2)CC1 | inconclusive: 3.55 µM [inhibitor, full curve, poor fit]

Gathered by group, those above with fluorine.
Row | SMILES | Potency
11 | Cc1cc(NC(=O)CC(C)C)c(=O)n(Cc2cccc(F)c2)c1 | inconclusive: 70.8 µM [inhibitor, partial curve, poor fit]
17 | O=C1C2C3C=CC(C4CC34)C2C(=O)N1CCCCN1CCN(c2ccc(F)cc2)CC1 (centres undefined) | inconclusive: 35.5 µM [inhibitor, partial curve, poor fit]

The results go on:

Row | SMILES | Potency
23 | Cn1cccc1CC(=O)N/N=C/c1ccco1 | inactive
24 | O=C(CSc1nnc(Cc2cccs2)n1C1CC1)c1c[nH]c(C(=O)N2CCCC2)c1 | inactive
25 | CCOC(=O)COn1c(=O)c(-c2cccs2)[n+]([O-])c2ccccc21 | inconclusive: 39.8 µM [inhibitor, partial curve, poor fit]
26 | CC(=O)Oc1ccc(C(=O)Nc2ccc3c(c2)C(=O)N(CCC(=O)O)C3=O)cc1 | inactive
27 | NC(=N\N=CCc1ccccc1)/C(N)=N/N=CCc1ccccc1 | inconclusive: 63.1 µM [inhibitor, single point]
28 | CN(C)Cc1c(C(C)(C)O)[nH]c2cc(C(F)(F)F)ccc12 | inconclusive: 5.62 µM [inhibitor, full curve, poor fit]
29 | COc1ccc(C(c2c(C)[nH]n(-c3ccccc3)c2=O)c2c(C)[nH]n(-c3ccccc3)c2=O)cc1OC | inconclusive: 44.7 µM [inhibitor, partial curve]
30 | COC(=O)c1cccc2c(C(=O)O)cc(-c3ccccc3)nc12 | inactive
31 | Nc1nn(Cc2ccc(Cl)cc2Cl)cc1Br | inconclusive: 20 µM [inhibitor, full curve, poor fit]
32 | CC1=C(C(=O)N2CCOCC2)C(c2ccc(F)c(Br)c2)C2=C(CCCC2=O)N1 (centres undefined) | inactive
33 | [O-][n+]1c2ccccc2c2n1CCCN=C2c1ccc(Cl)cc1 | inconclusive: 44.7 µM [inhibitor, partial curve]
34 | COc1ccc(CCCc2nnc(SCC(=O)Nc3ccc(OC)cc3)o2)cc1 | inconclusive: 31.6 µM [inhibitor, partial curve, poor fit]
35 | Cc1nn(-c2ccccc2)c(C)c1/C=N/n1c(-c2ccccc2Br)n[nH]c1=S | inactive
36 | CC(Sc1nc2ccccc2o1)C(=O)NC(=O)NC1CCCCC1 (centres undefined) | inactive
37 | S=C(c1ccc(-c2ccc(Cl)cc2)o1)N1CCCCC1 | active: 15.8 µM
38 | O=C(CSCc1ccc([N+](=O)[O-])cc1)N/N=C/c1ccco1 | inconclusive: 20 µM [inhibitor, full curve, poor fit]
39 | CC(=O)N1CCCc2cc(S(=O)(=O)CCC(=O)N3CCN(c4ccccc4)CC3)ccc21 | inconclusive: 89.1 µM [inhibitor, single point]
40 | O=C1CCn2c1c(O)c1ccccc1c2=O | inconclusive: 4.47 µM [inhibitor, full curve, poor fit]
41 | COc1ccc(C)cc1S(=O)(=O)N1CCCC(C(=O)NCc2ccccn2)C1 (centres undefined) | inactive
42 | NC(=O)c1ccsc1NC(=O)c1ccc2c(c1)CCCC2 | inconclusive: 25.1 µM [inhibitor, partial curve, poor fit]
43 | O=C(NCc1ccccc1)C(c1cc2ccccc2o1)n1c(=O)c(-c2cc3ccccc3[nH]2)nc2ccccc21 (centres undefined) | inconclusive: 112 µM [inhibitor, single point]
44 | Cc1cccc(C(=O)Oc2ccc3ccc(O)cc3c2)c1 | inconclusive: 0.708 µM [inhibitor, full curve, poor fit]

Row | SMILES | Potency
45 | CN(C)[C@@H]1C(=O)C(C(N)=O)=C(O)[C@@]2(O)C(=O)C3=C(O)c4c(O)ccc(Cl)c4[C@@H](O)[C@H]3C[C@@H]12 | inconclusive: 11.4 µM [inhibitor, partial curve] and inconclusive: 3.55 µM [inhibitor, full curve, poor fit]
46 | CCN(CC)c1ccc(C=Nc2ccccc2)c(O)c1 | inconclusive: 44.7 µM [inhibitor, partial curve, poor fit]
47 | CN(C)C(=O)c1ccc(OC2CCN(C(=O)c3ccccc3)CC2)nc1 | inconclusive: 22.4 µM [inhibitor, full curve]
48 | COc1ccc(C2(c3ccc(OC)cc3)NC(=O)N(CC(=O)NCC(C)c3ccccc3)C2=O)cc1 (centres undefined) | inconclusive: 89.1 µM [inhibitor, single point]
49 | CCOc1ccccc1N1CCN(Cc2ccc(OC)c(OC)c2OC)CC1 | inconclusive: 0.891 µM [inhibitor, full curve, poor fit]
50 | CCC(C)N(C(=O)CSc1ncnc2sccc12)C1CCS(=O)(=O)C1 (centres undefined) | inactive
51 | CCCOc1ccc(/C(O)=C2\C(=O)C(=O)NC2c2ccc(C(C)(C)C)cc2)cc1 (centres undefined) | inconclusive: 0.282 µM [inhibitor, full curve, poor fit]
52 | Nc1nc(CSCc2ccccc2)nc(N2CCOCC2)n1 | inconclusive: 7.94 µM [inhibitor, partial curve, poor fit]
53 | Cc1ccc(C(=O)COC(=O)C(C)N2C(=O)C3C4CCC(C4)C3C2=O)cc1C (centres undefined) | inactive
54 | COCCCNC(=O)[C@H]1CN(Cc2ccccc2)C[C@H]1C(=O)O | inconclusive: 28.2 µM [inhibitor, partial curve]
55 | Cn1c(=O)c2c(nc(NCc3ccc4c(c3)OCO4)n2Cc2c(Cl)cccc2Cl)n(C)c1=O | inactive
56 | Cc1ccc(NC(=O)O/N=C/c2c(C)nn(C(C)(C)C)c2C)cc1Cl | inconclusive: 100 µM [inhibitor, partial curve, poor fit]
57 | CCc1ccccc1Nc1cc(C(=O)NC(C)c2ccccc2)c2ccccc2n1 (centres undefined) | inconclusive: 56.2 µM [inhibitor, partial curve, poor fit]
58 | CC(C)NC(=O)C1(C)CSCC(=O)N1C1CCN(Cc2ccccc2)CC1 (centres undefined) | inconclusive: 89.1 µM [inhibitor, single point]
59 | COc1cc(C2c3c(-c4cc(C)ccc4O)n[nH]c3C(=O)N2CCCO)ccc1OCCC(C)C (centres undefined) | inconclusive: 126 µM [inhibitor, single point]
60 | CC(c1ccc(Cl)cc1)N(C)Cc1nc2ccccc2o1 (centres undefined) | inactive
61 | COC(=O)/C(C#N)=C/c1ccc(-c2ccc(Br)cc2)o1 | inconclusive: 89.1 µM [inhibitor, single point]
62 | CCOC(=O)c1ccccc1NC(=O)N1CCC(CN2CCCCC2)CC1 | inconclusive: 126 µM [inhibitor, partial curve, poor fit]
63 | Cn1c(-c2ccc(F)cc2)cnc1NCc1ccccc1 | inconclusive: 0.224 µM [inhibitor, full curve, poor fit]
64 | Cc1c(O)ccc2c(CN(C)CC(=O)Nc3ccc(Cl)cc3)cc(=O)oc12 | inconclusive: 7.94 µM [inhibitor, partial curve, poor fit]

Reference: PubChem BioAssay AID1671190 (National Center for Advancing Translational Sciences (NCATS), 2021)
